The values that follow come from PMC5963345.

Protein sequences, listed by entry. Tags and fused reporters are not part of them.
UniProt P70288: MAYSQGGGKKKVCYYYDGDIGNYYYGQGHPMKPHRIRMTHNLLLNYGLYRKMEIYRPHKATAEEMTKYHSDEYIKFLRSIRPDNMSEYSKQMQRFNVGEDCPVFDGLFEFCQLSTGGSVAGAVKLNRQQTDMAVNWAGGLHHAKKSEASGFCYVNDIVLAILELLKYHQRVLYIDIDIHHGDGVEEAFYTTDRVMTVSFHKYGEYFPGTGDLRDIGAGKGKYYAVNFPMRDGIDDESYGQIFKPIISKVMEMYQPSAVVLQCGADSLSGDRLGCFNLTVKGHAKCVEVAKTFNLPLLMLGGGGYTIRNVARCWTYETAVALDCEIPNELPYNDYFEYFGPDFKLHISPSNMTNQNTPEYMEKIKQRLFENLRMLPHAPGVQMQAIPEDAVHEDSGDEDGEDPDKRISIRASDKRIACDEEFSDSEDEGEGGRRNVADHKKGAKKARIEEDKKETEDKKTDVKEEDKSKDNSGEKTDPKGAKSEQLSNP
UniProt O09106: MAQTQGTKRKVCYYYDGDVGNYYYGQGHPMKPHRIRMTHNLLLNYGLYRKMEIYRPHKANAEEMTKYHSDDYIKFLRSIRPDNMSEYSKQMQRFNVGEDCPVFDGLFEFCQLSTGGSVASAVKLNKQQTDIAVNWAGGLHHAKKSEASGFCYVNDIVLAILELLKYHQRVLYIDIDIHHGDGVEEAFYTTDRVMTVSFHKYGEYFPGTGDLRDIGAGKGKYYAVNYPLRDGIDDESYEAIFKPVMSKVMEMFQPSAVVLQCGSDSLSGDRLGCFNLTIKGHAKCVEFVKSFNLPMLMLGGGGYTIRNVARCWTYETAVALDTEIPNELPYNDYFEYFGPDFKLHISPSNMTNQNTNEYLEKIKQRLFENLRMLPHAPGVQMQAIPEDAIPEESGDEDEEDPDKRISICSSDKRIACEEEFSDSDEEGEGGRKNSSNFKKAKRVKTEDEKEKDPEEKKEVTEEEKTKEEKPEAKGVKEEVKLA

These are yes or no findings as the source states them, for the method shown. Binding seen in cells or lysates may run through a third protein. Some entries that bind do so weakly or less than the wild type.

The target in test [1] is HDAC2 (mouse (endogenous in mouse brain tissue)) (UniProt P70288). In words: co-IP; mouse brain tissue homogenates (100 ug protein) of sham, MCAO 24 h and MCAO 3 d groups, diluted in RIPA buffer; precipitated with antibody (methods: HDAC1 or HDAC2 antibody; legend: TOPK antibody) on Protein G Sepharose, 4°C overnight; Western blot.
Test [2] has as its target HDAC1 (mouse (endogenous in mouse brain tissue)) (UniProt O09106). The test is described as above.

B1: T-LAK-cell-originated protein kinase (TOPK) (protein, UniProt Q9JJ78 1-330)
chain: MEGINNFKTPNKSEKRKSVLCSTPCVNIPASPFMQKLGFGTGVSVYLMKRSPRGLSHSPWAVKKISLLCDDHYRTVYQKRLTDEAKILKNLNHPNIIGYRAFTEASDGSLCLAMEYGGEKSLNDLIEERNKDSGSPFPAAVILRVALHMARGLKYLHQEKKLLHGDIKSSNVVIKGDFETIKICDVGVSLPLDENMTVTDPEACYIGTEPWKPKEALEENGIITDKADVFAFGLTLWEMMTLCIPHVNLPDDDVDEDATFDESDFDDEAYYAALGTRPSINMEELDDSYQKAIELFCVCTNEDPKDRPSAAHIVEALELDGQCCGLSSKH
Consider B1, for which the binding result in test [1] and in test [2] was “binds” each time.
